Data as given in publication PMC10655563.
These are yes or no findings as the source states them, for the method shown. For part of these data: In cells and extracts the contact can be indirect. Some results given as binding are weak or reduced against the parent protein; the word gives no strength. Sequences can lack the tags named with a protein.

Sequences of proteins named here, by UniProt entry; tags and fusion partners are left off. A change or cut given only in a name is not applied to a line headed by its entry. Residues count along the entry.
UniProt P01344: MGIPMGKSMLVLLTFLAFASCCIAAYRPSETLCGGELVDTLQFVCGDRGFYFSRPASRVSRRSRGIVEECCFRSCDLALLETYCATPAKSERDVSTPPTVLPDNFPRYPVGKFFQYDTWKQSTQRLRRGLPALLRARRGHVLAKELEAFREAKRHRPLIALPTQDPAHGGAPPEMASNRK
Synthesized peptide corresponding to residues 112-140 of IGF2 (IGF2^112-140): residues 112-140 of P01344

T1: FLAG-tagged TMED10^1-130 (TMED10^1-130-FLAG) (human) (UniProt P49755)
T1 sequence: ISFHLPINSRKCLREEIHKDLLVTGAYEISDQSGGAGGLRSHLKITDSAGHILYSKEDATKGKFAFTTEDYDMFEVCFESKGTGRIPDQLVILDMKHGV

T2: FLAG-tagged TMED10 (TMED10-FLAG), full length (human) (UniProt P49755)
T2 sequence: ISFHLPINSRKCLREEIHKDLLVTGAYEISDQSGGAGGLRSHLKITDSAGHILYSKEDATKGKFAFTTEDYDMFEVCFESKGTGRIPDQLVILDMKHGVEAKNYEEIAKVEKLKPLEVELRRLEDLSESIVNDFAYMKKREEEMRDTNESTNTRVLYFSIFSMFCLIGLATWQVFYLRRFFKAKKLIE


Assays:
[1] = molecular target: T1, FLAG-tagged TMED10^1-130 (TMED10^1-130-FLAG) (human); test: co-IP; HEK293T cells cotransfected with the indicated constructs; cells treated with 2 mM DSP cross-linker; lysates incubated with beads conjugated with anti-FLAG antibodies; bound proteins analysed by immunoblot
[2] = molecular target: T2, FLAG-tagged TMED10 (TMED10-FLAG), full length (human); test: as above
[3] = molecular target: Synthesized peptide corresponding to residues 112-140 of IGF2 (IGF2^112-140) (human) (UniProt P01344); test: pull-down; IGF2 112-140 peptides covalently linked to thiopyridone sepharose 6B, incubated with purified GST or GST-TMED10 (1-130); bound proteins analysed by immunoblot; both purified

Row | binding [1] | binding [2] | binding [3] | Molecule
1 | binds | binds |  | HA-tagged IGF2 (IGF2-HA) (from UniProt P01344 25-180)
2 |  |  | binds | GST-tagged human TMED10 GOLD domain (residues 1-130) (domain or fragment, UniProt P49755 32-130) ISFHLPINSRKCLREEIHKDLLVTGAYEISDQSGGAGGLRSHLKITDSAGHILYSKEDATKGKFAFTTEDYDMFEVCFESKGTGRIPDQLVILDMKHGV
